Results on 28 targets are retold here after the supplement of paper PMC12819154, “High-throughput peptide-centric local stability assay extends protein–ligand identification to membrane proteins, tissues and bacteria” (Nature Structural & Molecular Biology, 2025).

By UniProt entry, the sequences of proteins in these tests, tags left out. Where a name states a change or a piece, a line headed by the entry shows the natural chain unless it says otherwise.
UniProt Q96GD0: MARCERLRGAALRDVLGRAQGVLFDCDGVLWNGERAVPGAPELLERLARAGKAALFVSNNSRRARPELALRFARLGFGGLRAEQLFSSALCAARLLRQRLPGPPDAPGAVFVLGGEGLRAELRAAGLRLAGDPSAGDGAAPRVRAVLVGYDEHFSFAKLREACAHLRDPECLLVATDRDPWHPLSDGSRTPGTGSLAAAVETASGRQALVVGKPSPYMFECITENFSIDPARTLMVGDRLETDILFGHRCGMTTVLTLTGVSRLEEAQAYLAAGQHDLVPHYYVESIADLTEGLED
UniProt Q96C03: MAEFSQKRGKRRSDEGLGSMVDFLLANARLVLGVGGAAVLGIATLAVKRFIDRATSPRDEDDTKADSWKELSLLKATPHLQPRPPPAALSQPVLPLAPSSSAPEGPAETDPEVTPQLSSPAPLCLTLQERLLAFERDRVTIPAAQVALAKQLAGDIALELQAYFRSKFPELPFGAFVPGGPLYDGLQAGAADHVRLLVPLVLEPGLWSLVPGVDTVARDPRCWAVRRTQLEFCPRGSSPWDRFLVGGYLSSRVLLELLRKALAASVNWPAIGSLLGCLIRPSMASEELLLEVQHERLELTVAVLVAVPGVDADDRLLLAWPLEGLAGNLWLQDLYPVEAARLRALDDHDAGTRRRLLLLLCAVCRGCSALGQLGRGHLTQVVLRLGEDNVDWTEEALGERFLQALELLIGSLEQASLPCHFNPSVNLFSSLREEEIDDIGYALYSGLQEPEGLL
UniProt Q96BY7: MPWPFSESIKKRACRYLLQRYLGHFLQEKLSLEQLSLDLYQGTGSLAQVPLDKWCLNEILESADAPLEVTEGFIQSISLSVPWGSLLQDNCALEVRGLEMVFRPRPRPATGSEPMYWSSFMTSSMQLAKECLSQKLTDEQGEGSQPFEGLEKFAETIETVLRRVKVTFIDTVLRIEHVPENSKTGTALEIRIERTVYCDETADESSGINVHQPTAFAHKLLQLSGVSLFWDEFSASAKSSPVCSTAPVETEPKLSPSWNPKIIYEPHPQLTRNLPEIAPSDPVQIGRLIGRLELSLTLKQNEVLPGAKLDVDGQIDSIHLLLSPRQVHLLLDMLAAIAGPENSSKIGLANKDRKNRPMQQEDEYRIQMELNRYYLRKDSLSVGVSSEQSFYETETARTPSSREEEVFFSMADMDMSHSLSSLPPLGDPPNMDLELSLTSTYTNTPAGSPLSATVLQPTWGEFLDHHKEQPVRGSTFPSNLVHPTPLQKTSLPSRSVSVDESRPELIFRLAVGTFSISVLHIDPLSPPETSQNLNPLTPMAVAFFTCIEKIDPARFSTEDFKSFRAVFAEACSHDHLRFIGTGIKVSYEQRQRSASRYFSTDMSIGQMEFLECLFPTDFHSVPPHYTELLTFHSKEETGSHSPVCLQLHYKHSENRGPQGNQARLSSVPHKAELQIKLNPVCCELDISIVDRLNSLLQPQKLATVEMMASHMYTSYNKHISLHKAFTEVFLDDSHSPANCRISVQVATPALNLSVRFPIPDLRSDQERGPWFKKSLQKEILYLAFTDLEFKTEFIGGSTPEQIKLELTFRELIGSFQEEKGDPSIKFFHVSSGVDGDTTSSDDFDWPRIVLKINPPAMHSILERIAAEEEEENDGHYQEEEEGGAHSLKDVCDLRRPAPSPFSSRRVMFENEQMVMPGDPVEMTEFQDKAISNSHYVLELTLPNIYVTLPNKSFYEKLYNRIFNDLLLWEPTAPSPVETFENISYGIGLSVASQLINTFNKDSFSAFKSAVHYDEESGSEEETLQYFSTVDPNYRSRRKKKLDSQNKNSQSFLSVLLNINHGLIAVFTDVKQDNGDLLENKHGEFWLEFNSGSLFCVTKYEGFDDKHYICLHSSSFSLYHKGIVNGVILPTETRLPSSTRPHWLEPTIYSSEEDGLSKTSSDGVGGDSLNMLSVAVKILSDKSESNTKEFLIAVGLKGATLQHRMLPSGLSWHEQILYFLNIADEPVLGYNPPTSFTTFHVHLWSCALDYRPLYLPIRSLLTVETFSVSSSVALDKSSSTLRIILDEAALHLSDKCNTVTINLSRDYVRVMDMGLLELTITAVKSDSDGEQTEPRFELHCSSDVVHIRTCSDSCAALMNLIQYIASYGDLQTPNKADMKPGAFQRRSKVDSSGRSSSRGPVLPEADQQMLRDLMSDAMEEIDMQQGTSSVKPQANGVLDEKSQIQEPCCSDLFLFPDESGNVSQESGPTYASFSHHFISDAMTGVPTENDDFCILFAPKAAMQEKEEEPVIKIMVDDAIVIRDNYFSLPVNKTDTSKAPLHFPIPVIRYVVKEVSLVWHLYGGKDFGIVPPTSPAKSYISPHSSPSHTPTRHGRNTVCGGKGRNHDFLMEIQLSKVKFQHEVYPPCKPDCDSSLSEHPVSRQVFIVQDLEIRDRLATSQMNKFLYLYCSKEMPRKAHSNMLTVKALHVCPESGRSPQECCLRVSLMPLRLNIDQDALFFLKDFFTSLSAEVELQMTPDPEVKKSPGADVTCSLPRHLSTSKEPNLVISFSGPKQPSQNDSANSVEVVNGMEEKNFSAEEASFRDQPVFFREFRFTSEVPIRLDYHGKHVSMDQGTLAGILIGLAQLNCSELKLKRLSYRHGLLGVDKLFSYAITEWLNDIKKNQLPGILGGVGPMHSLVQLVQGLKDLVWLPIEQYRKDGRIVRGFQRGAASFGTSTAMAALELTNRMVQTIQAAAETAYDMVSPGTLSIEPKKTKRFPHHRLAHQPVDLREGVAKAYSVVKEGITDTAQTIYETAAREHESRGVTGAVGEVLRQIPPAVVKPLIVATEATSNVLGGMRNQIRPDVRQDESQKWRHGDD
UniProt Q96F05: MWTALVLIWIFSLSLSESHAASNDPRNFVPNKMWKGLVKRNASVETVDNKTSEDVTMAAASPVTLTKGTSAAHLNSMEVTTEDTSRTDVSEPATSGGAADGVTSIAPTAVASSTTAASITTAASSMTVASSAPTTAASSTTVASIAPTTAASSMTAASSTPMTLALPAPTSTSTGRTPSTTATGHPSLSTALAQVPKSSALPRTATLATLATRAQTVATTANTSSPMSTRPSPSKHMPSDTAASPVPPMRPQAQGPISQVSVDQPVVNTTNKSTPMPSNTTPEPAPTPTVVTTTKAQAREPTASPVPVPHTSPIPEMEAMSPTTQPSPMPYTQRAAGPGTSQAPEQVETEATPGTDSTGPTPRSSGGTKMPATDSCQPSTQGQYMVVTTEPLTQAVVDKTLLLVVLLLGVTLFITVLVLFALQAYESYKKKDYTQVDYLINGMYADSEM
UniProt Q93075: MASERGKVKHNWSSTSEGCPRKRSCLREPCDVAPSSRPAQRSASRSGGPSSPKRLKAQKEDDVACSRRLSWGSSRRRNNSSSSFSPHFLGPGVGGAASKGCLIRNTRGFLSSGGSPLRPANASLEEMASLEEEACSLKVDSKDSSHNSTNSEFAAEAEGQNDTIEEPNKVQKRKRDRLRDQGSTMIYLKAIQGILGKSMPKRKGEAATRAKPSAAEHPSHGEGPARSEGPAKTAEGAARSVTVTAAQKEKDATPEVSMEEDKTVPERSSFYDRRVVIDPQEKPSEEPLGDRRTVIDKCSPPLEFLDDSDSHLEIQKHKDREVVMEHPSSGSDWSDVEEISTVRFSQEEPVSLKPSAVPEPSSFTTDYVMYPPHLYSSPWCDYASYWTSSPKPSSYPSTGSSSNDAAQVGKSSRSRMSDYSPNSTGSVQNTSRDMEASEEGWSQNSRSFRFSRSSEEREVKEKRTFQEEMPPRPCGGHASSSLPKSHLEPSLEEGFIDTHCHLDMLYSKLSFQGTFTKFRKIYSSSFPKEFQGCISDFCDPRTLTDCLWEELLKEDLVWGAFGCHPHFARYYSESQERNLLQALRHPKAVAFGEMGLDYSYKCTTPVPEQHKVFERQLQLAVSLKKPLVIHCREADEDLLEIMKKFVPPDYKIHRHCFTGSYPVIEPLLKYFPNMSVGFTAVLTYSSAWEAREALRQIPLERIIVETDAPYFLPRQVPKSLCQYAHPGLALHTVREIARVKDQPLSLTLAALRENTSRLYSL
UniProt Q92902: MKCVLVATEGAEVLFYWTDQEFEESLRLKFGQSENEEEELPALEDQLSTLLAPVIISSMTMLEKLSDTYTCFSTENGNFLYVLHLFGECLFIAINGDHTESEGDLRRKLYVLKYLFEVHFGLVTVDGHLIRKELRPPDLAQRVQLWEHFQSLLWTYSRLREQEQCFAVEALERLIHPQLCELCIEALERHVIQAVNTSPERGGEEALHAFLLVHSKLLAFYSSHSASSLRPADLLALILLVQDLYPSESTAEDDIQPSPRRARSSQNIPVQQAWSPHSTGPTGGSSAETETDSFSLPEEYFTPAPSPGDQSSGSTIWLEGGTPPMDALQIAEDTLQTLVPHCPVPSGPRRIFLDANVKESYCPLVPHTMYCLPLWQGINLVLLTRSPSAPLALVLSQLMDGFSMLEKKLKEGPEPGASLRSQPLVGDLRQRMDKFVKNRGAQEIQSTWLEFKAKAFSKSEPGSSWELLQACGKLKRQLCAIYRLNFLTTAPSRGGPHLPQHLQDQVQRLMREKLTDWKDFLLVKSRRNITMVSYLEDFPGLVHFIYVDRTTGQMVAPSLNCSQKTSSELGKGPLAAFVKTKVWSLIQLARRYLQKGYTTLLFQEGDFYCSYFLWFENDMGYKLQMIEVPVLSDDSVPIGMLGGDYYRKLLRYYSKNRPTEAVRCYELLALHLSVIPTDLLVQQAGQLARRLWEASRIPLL
UniProt Q96DY7: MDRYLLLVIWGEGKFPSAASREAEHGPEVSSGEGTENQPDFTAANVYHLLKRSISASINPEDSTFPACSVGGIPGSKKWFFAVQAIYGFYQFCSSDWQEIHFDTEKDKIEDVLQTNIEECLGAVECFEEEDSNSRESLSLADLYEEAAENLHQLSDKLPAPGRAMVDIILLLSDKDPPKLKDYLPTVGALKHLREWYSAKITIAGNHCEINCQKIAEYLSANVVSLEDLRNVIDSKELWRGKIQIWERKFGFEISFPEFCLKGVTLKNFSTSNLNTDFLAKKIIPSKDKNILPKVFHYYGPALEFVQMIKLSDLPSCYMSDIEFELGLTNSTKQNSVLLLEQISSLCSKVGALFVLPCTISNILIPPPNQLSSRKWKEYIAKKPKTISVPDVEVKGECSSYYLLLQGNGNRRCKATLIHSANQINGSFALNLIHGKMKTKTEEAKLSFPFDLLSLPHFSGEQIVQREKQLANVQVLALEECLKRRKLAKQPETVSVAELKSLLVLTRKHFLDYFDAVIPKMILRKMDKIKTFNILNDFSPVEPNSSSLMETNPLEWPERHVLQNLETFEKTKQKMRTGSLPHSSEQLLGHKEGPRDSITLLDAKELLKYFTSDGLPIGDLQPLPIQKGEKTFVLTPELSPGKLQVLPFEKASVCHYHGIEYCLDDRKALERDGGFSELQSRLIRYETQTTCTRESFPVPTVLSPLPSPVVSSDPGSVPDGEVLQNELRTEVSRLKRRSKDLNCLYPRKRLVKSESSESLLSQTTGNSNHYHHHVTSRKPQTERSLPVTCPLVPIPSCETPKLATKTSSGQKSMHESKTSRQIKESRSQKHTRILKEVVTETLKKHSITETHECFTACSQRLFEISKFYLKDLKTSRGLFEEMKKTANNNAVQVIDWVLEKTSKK
UniProt Q96AT9: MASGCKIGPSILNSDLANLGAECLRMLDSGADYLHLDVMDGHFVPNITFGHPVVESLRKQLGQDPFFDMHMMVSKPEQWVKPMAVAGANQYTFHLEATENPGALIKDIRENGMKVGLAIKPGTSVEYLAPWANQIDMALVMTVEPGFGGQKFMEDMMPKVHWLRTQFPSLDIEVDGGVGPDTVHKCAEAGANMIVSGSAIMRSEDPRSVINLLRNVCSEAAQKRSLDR
UniProt Q96DF8: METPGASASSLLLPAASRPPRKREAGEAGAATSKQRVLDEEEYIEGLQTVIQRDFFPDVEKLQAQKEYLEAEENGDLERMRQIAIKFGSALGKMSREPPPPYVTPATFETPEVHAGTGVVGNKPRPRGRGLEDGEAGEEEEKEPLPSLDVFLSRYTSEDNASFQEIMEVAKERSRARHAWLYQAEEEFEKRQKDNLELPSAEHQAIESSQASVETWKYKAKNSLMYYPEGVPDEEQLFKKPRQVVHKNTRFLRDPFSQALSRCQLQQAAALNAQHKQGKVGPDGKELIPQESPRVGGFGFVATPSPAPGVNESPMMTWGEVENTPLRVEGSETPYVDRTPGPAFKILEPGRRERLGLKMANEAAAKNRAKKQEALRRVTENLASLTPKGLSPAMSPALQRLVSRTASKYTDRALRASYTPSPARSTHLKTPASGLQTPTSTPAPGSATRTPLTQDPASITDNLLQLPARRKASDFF
UniProt Q969X0: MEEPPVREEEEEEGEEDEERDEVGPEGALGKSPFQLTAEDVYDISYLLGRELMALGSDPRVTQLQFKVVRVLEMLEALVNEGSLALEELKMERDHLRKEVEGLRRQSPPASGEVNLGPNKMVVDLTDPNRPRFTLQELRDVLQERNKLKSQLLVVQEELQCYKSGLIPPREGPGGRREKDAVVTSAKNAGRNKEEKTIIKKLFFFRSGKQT

The list shows a part of the results. Most entries show no effect beyond the scatter of the controls.

Compound in this test: CN[C@@H]1C[C@H]2O[C@@](C)([C@@H]1OC)n1c3ccccc3c3c4c(c5c6ccccc6n2c5c31)C(=O)NC4 [staurosporine]
Briefly: log2 fold change of tryptic peptide abundance, ligand vs vehicle (limited proteolysis) (log2 ratio); higher = more trypsin-susceptible (destabilized). To be noted: ligand concentration: 20 uM; sample: K562 cleared lysate; digestion: 4 min, 22 C (HT-PELSA RT4min, Orbitrap Astral).
As for “SGTB (peptide sequence: LGHYTDAIK, peptide start residue: 132) (UniProt Q96EQ0)”, the log2 fold change stood at 0.329.
Next, “UniProt Q96EK7 (peptide sequence: QEDSMCTHAEINQK, peptide start residue: 518)”: -0.483; “PDXP (peptide sequence: AVPGAPELLER, peptide start residue: 36) (UniProt Q96GD0)”: 0.213.
On to “UniProt Q92890 (peptide sequence: MFSFNMFDHPIPR, peptide start residue: 1)”, for which the log2 fold change is -0.352.
As for “ARHGEF2 (peptide sequence: EVMKQQDVIYELIQTELHHVR, peptide start residue: 232) (UniProt Q92974)”, the figure is 0.829.
“DDX11 (peptide sequence: ELPQMMDEVGR, peptide start residue: 680) (UniProt Q96FC9)”: the log2 fold change was 0.12.
For “UniProt Q96C03 (peptide sequence: LVLGVGGAAVLGIATLAVKR, peptide start residue: 30)”, the log2 fold change was -0.00909.
As to “UniProt Q96G23 (peptide sequence: SRPLANGHPILNNNHR, peptide start residue: 362)”, the log2 fold change was -0.11.
For the target “EMG1 (peptide sequence: AAPSDGFKPR, peptide start residue: 2) (UniProt Q92979)”, the log2 fold change was 0.0675.
As to “COPS5 (peptide sequence: TTIEAIHGLMSQVIKDK, peptide start residue: 310) (UniProt Q92905)”, the log2 fold change was found to be 0.165.
Regarding “ATG2B (peptide sequence: EPNLVISFSGPK, peptide start residue: 1761) (UniProt Q96BY7)”, the log2 fold change amounted to 0.485.
Next, “ITPKC (peptide sequence: THEVVGSSLLFVHDHTGLAK, peptide start residue: 614) (UniProt Q96DU7)”: 0.236; “C11orf24 (peptide sequence: TATLATLATR, peptide start residue: 204) (UniProt Q96F05)”: 0.227; “TBC1D20 (peptide sequence: EAAAQQQAER, peptide start residue: 310) (UniProt Q96BZ9)”: -0.485.
Next, “OTUD5 (peptide sequence: ESYLQWLRDQEK, peptide start residue: 405) (UniProt Q96G74)”: 0.721; “FAM136A (peptide sequence: AKDSIDAGSK, peptide start residue: 90) (UniProt Q96C01)”: 0.323; “TATDN2 (peptide sequence: AKPSAAEHPSHGEGPAR, peptide start residue: 210) (UniProt Q93075)”: -0.274.
Take “HPS1 (peptide sequence: SQPLVGDLR, peptide start residue: 421) (UniProt Q92902)”: the log2 fold change was -0.209.
Take “UniProt Q96DY7 (peptide sequence: TGSLPHSSEQLLGHK, peptide start residue: 577)”: the log2 fold change was 0.216.
Next, “USP7 (peptide sequence: DLLQFFKPRQPK, peptide start residue: 863) (UniProt Q93009)”: -0.631.
In the case of “UniProt Q96AX9 (peptide sequence: KLRPDGSEVASAAPAPGPPR, peptide start residue: 873)”, the log2 fold change was 0.396.
Next, “RPE (peptide sequence: NVCSEAAQKR, peptide start residue: 215) (UniProt Q96AT9)”: 0.299.
On to “PHKB (peptide sequence: TPTGFYDRVWQILER, peptide start residue: 937) (UniProt Q93100)”, for which the log2 fold change is -0.251.
As for “UniProt Q96DF8 (peptide sequence: DPFSQALSR, peptide start residue: 254)”, the log2 fold change came out at 0.177.
As for “RILPL2 (peptide sequence: MVVDLTDPNRPR, peptide start residue: 121) (UniProt Q969X0)”, the figure is 0.0822; as for “EXOC4 (peptide sequence: EFLTVYIK, peptide start residue: 526) (UniProt Q96A65)”, -0.154; as for “ELP4 (peptide sequence: KEFDEDVYNHKTPESNIK, peptide start residue: 140) (UniProt Q96EB1)”, 0.511.
As for “NACC2 (peptide sequence: DGVAVAAGAAVAAGTAPLKLPR, peptide start residue: 199) (UniProt Q96BF6)”, the figure is -0.191.
